Reference: PMC12802938

By UniProt entry, the sequences of proteins in these tests, tags left out.
UniProt A0AVF1: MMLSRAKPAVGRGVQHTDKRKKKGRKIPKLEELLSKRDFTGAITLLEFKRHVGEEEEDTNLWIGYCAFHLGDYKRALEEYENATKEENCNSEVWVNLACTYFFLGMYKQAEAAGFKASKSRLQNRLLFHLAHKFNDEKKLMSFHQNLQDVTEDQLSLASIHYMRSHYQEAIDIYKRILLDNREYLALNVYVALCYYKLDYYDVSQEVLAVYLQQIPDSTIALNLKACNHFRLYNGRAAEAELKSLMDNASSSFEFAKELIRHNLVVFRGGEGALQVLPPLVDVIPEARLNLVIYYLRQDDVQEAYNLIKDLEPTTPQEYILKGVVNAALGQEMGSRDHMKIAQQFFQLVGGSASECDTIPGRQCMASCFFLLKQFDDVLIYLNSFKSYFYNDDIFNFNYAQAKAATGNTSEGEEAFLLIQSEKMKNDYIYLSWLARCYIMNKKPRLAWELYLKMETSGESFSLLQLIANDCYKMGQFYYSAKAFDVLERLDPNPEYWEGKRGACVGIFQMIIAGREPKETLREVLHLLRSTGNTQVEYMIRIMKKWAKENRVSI

T1: GFP-tagged CCDC92 (mouse) (UniProt Q8VDN4)
T1 sequence: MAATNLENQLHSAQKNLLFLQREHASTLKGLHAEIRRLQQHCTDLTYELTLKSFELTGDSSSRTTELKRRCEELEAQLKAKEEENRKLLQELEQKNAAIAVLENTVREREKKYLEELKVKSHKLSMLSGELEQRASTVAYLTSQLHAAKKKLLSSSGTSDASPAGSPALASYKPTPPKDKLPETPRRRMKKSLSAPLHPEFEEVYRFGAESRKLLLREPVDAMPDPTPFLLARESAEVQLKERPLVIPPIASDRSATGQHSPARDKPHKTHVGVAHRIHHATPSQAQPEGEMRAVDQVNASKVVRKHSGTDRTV

B1: IFT46 (endogenous, HEK293T) (protein, UniProt Q9NQC8 1-304)
chain: MADNSSDECEEENNKEKKKTSQLTPQRGFSENEDDDDDDDDSSETDSDSDDDDEEHGAPLEGAYDPADYEHLPVSAEIKELFQYISRYTPQLIDLDHKLKPFIPDFIPAVGDIDAFLKVPRPDGKPDNLGLLVLDEPSTKQSDPTVLSLWLTENSKQHNITQHMKVKSLEDAEKNPKAIDTWIESISELHRSKPPATVHYTRPMPDIDTLMQEWSPEFEELLGKVSLPTAEIDCSLAEYIDMICAILDIPVYKSRIQSLHLLFSLYSEFKNSQHFKALAEGKKAFTPSSNSTSQAGDMETLTFS
B2: IFT81 (endogenous, HEK293T) (protein, UniProt Q8WYA0 1-676)
chain: MSDQIKFIMDSLNKEPFRKNYNLITFDSLEPMQLLQVLSDVLAEIDPKQLVDIREEMPEQTAKRMLSLLGILKYKPSGNATDMSTFRQGLVIGSKPVIYPVLHWLLQRTNELKKRAYLARFLIKLEVPSEFLQDETVADTNKQYEELMEAFKTLHKEYEQLKISGFSTAEIRKDISAMEEEKDQLIKRVEHLKKRVETAQNHQWMLKIARQLRVEKEREEYLAQQKQEQKNQLFHAVQRLQRVQNQLKSMRQAAADAKPESLMKRLEEEIKFNLYMVTEKFPKELENKKKELHFLQKVVSEPAMGHSDLLELESKINEINTEINQLIEKKMMRNEPIEGKLSLYRQQASIISRKKEAKAEELQEAKEKLASLEREASVKRNQTREFDGTEVLKGDEFKRYVNKLRSKSTVFKKKHQIIAELKAEFGLLQRTEELLKQRHENIQQQLQTMEEKKGISGYSYTQEELERVSALKSEVDEMKGRTLDDMSEMVKKLYSLVSEKKSALASVIKELRQLRQKYQELTQECDEKKSQYDSCAAGLESNRSKLEQEVRRLREECLQEESRYHYTNCMIKNLEVQLRRATDEMKAYISSDQQEKRKAIREQYTKNTAEQENLGKKLREKQKVIRESHGPNMKQAKMWRDLEQLMECKKQCFLKQQSQTSIGQVIQEGGEDRLIL

target: T1, GFP-tagged CCDC92 (mouse); assay: affinity purification with mass spectrometry; GFP-CCDC92 expressed in HEK293T cells, immunoprecipitated with GFP nanobody-coated agarose beads, on-bead digestion; hits compared with a GFP sample

binding, binds:
IFT56 (endogenous, HEK293T) (from UniProt A0AVF1 1-554)
B1
B2

These are yes or no findings as the source states them, for the method shown. Binding seen in cells or lysates may run through a third protein. Here binding means that the protein was enriched with, or labelled near, the bait; the list need not be complete. Sequences can lack the tags named with a protein.
